These are yes or no findings as the source states them, for the method shown. Binding seen in cells or lysates may run through a third protein. These calls come from enrichment with a bait or labelling near it, and not all partners need be listed.
Biological target: BirA*-Ago2 (UniProt Q9UKV8)
Test: proximity labelling; classical BioID with BirA*-Ago2 in a stable HeLa 11ht cell line; 50 μM biotin, 25 ng/ml doxycycline, 24 h; capture on streptavidin beads, MS

Amino acid sequences for entries named in this document (tags omitted).
UniProt Q9UKV8: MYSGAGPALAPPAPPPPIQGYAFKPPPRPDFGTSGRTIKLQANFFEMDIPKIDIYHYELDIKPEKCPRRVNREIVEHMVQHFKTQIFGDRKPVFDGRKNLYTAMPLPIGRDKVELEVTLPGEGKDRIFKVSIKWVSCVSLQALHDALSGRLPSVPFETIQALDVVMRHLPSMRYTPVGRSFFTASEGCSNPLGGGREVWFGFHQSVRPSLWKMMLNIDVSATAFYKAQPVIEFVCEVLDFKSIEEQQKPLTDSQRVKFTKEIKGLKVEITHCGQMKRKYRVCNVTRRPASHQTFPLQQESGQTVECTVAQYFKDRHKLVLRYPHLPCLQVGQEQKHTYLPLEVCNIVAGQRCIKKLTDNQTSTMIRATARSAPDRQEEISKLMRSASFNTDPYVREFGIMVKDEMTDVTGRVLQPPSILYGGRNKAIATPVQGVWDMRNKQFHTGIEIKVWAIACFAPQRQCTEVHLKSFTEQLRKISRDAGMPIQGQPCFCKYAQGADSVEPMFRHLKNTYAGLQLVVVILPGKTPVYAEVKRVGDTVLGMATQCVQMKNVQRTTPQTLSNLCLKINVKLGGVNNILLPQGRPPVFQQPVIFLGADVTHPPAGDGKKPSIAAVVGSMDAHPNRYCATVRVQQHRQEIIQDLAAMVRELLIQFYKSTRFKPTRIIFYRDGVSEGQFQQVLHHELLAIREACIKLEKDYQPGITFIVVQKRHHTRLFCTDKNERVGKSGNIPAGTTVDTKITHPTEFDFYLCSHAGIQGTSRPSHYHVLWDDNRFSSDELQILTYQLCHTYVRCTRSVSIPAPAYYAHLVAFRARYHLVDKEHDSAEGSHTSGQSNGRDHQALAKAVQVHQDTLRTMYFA
UniProt Q9UPY3: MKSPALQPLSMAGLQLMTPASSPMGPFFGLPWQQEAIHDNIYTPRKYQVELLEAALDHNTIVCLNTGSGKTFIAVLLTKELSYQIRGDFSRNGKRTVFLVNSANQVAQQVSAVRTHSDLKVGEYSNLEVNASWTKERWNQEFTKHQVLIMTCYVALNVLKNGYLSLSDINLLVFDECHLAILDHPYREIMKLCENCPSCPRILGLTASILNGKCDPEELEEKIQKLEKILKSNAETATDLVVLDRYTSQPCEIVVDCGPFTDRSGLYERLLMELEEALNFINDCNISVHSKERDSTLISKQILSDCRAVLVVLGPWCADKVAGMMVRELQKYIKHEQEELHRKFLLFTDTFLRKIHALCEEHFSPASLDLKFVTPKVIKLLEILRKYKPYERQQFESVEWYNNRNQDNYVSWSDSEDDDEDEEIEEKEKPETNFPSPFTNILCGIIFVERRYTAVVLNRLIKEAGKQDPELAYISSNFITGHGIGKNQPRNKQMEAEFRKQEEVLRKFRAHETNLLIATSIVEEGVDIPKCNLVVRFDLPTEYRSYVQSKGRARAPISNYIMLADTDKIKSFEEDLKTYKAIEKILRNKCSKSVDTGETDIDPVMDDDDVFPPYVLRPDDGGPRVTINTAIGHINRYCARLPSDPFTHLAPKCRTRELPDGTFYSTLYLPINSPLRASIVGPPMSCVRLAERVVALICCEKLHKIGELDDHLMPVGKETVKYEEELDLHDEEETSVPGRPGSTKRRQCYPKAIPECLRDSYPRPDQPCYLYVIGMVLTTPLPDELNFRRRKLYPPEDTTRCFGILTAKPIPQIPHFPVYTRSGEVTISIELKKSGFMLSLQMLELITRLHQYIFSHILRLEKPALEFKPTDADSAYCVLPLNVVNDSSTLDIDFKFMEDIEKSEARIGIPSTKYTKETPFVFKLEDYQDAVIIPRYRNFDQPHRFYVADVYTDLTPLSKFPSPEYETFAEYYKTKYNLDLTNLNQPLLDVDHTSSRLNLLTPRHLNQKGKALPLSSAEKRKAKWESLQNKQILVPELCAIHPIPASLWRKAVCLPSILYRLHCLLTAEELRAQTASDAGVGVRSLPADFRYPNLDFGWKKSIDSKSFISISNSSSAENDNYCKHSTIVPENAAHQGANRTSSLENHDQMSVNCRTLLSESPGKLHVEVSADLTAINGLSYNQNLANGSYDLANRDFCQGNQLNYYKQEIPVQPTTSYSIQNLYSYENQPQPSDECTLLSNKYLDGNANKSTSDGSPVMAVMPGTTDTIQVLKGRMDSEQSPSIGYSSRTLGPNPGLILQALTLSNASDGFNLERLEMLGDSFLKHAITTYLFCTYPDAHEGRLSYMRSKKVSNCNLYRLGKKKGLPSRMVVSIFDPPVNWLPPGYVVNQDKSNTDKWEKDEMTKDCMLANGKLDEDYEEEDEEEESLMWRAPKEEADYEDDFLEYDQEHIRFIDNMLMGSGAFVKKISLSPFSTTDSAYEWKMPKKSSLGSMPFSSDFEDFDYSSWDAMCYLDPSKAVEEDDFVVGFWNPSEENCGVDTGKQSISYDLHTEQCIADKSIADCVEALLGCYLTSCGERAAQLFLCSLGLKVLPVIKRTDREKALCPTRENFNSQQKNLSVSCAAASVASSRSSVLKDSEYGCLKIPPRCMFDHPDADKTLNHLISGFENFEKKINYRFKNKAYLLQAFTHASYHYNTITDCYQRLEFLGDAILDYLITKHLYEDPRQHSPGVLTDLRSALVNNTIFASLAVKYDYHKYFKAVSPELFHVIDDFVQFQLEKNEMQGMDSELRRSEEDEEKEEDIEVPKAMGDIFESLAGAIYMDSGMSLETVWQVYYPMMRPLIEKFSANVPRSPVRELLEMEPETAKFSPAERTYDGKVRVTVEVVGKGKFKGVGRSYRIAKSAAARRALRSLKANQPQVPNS
UniProt Q9HCJ0: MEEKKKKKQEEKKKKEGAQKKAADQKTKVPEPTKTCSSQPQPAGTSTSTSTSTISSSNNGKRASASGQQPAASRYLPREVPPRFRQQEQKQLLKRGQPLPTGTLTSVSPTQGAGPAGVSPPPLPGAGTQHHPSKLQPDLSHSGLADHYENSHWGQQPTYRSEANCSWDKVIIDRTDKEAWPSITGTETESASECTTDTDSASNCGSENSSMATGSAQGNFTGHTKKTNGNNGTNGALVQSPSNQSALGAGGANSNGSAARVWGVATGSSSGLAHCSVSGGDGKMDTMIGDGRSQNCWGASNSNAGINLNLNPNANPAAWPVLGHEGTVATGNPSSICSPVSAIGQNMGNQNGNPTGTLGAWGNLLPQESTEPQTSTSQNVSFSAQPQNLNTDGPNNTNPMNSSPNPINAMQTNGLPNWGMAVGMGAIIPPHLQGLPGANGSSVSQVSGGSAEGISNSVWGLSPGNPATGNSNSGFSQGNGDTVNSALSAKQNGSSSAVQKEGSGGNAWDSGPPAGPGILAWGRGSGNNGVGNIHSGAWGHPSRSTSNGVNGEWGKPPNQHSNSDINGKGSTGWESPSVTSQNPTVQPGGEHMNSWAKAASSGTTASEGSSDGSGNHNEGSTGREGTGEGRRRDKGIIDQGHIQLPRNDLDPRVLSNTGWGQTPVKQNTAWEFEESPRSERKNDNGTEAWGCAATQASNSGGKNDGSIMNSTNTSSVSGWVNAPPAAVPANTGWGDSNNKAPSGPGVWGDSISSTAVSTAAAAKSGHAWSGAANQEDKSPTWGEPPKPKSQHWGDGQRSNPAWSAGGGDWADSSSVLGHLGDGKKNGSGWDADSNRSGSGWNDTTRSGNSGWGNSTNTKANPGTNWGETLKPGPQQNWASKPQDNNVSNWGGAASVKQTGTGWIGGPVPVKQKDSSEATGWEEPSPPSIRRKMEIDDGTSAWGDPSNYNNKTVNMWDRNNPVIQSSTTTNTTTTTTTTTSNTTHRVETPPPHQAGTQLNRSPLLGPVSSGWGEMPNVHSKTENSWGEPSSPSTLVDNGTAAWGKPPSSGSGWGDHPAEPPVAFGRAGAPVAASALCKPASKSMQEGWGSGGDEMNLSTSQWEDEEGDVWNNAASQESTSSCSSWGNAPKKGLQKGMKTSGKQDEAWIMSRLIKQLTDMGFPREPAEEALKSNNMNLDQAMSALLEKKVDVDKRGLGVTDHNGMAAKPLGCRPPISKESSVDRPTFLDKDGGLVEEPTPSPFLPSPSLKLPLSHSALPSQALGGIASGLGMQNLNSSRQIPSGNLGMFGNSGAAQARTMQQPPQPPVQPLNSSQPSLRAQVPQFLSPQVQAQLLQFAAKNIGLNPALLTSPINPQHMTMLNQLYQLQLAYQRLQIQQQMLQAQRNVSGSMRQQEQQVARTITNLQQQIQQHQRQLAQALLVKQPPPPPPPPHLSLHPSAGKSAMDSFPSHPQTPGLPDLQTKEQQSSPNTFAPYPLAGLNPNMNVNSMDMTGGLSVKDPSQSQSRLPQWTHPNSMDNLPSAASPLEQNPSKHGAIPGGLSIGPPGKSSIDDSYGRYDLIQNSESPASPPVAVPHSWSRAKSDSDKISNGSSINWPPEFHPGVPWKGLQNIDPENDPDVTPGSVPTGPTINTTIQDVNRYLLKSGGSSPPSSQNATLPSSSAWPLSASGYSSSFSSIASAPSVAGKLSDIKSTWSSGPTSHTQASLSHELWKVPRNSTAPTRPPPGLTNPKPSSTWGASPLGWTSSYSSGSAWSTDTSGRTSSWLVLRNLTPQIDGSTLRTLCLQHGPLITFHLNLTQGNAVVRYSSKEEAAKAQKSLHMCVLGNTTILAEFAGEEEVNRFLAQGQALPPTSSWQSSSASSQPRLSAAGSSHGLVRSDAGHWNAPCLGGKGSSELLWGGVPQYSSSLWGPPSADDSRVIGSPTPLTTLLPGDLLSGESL

binding	Substance
binds	Dicer (endogenous) (from UniProt Q9UPY3 1-1922) (enzyme)
binds	TNRC6C (endogenous) (from UniProt Q9HCJ0 1-1936)

Source: article PMC5467174
